# Measured values published in publication PMC5816632.
# By UniProt entry, the sequences of proteins in these tests, tags left out. Where a name states a change or a piece, a line headed by the entry shows the natural chain unless it says otherwise.
# UniProt Q13153: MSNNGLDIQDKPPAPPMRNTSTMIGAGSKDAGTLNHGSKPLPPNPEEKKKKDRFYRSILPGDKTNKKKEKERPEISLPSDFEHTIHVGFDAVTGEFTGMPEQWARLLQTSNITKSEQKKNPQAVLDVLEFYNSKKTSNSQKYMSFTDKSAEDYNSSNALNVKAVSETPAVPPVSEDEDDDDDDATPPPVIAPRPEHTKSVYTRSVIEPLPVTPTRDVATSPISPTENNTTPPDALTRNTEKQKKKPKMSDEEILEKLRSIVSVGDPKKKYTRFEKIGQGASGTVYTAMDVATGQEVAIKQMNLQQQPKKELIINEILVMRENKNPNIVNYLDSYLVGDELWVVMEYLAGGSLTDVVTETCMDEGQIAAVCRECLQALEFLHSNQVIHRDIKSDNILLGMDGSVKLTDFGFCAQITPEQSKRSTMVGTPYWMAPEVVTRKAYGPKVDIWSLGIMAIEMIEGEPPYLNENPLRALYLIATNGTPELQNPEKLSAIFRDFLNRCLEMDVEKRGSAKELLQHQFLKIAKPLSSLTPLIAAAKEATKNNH
# UniProt P60953: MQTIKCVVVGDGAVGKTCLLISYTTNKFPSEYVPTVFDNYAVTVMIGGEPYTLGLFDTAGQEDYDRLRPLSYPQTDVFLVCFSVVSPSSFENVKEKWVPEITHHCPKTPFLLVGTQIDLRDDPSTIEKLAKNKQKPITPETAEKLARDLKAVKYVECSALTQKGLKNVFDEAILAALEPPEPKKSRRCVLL
# Results are given in words; binding and its absence hold for the method and conditions named. In cells and extracts the contact can be indirect. Binding calls can cover weak binding; strength is not graded here.
# Biological target: PAK1-RHO binding domain (RBD) fused to GST (UniProt Q13153)
# Experiment: pull-down; bacterial lysate containing GST-PAK1-RBD as bait; total Jurkat cell lysates (wild-type, non-target shRNA, ITK knockdown) as prey; immunoblot with CDC42 and RAC1 specific antibodies
substance,measurement,value
"CDC42, GTP-bound (activated form) (from UniProt P60953 1-191)",binding,binds
